# Results of single-concentration screens

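Phenotypic screen: M. tuberculosis growth, glucose 7H9 medium, 3 days; the read-out is not stated. Compounds at 500 µM. Direction is inferred from retests: higher values go with more growth inhibition. About 18,000 compounds were tested under these conditions; 7.9% (about 1,400) showed 50% or more at least once.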

Each number is a percent effect as filed.
The record does not define 0% and 100%; most values in the screen are far below 50% and negative numbers occur (in some assays of this library far below -100).
This is an unselected part of the compounds tested.

Result for Cc1ccc(C2CCCN2S(=O)(=O)N(C)CC(N)=O)o1 (configuration not stated) was 23.53%. COC(=O)NCC(=O)Nc1cc2c(cc1Br)OCCO2 gave 0.8328%. COCCNC(=O)CNC(=O)c1cc(C)cc(C)c1Br gave 12.99%. CC(C)N(C)C(=O)Nc1cccnc1OCC(F)F gave 22.23%. For CC(N)c1c(F)cccc1F (configuration not stated) the result was 7.306%.

Result for O=C(CCS(=O)(=O)c1ccccc1)NC1CCCC1 was 33.04%. COC(=O)C(CN)c1ccc(Cl)cc1 (configuration not stated) read 8.82%. Result for CNS(=O)(=O)c1ccc(CNc2cccc(C)n2)cc1 was -4.956%. For CC(C)Cc1nc(COCc2ncc[nH]2)no1 the result was 12.66%. Result for C[n+]1ccn(C(=O)N2CCCCCC2)c1.[I-] was 22.97%.

For CC(=O)N1CCN(CCSc2ccccc2)CC(O)C1 (configuration not stated) the result was 32.26%. CCCC(C#N)NC(=O)c1ccn(-c2ccccc2)n1 (configuration not stated) read 71.2%. For FC(F)(F)c1c[nH]c(C2CCCNC2)n1 (configuration not stated) the result was 21.49%. OCC(O)CNc1ccnc2ccc(Br)cc12 (configuration not stated) read 3.313%. Result for O=C(Cc1ccc(F)cc1F)NCCC1CCNC1 (configuration not stated) was 13.82%.

For N#CCCN(CCC#N)Cc1cccc2c1OCO2 the result was 8.516%. With N#CCSCCCSc1cnn[nH]1 the screen gave 41.24%. With CNC(=O)CN1CCCC(CO)(CCCOC)C1 (configuration not stated) the screen gave 4.336%. CNCc1ccc(Cn2cncn2)cc1 read 5.687%. Cc1noc(C)c1CCC(=O)NCc1ccon1 read 4.888%.

With COCCOc1cccc(CNCCNS(C)(=O)=O)c1 the screen gave 17.03%. CC(=O)N(Cc1ccccc1F)C1CCN(C)CC1 read 5.884%. Result for C1COC(CN2CCNCC2)C1 (configuration not stated) was 1.038%. For O=C(CN1CCOCC1)NCCc1noc(C2CC2)n1 the result was -3.835%. For CC(C)(C)C(=O)Nc1nc(-c2ccncc2)n[nH]1 the result was -0.4811%.

For CCOc1cccc(CNc2nc(N(C)C)n[nH]2)c1 the result was 53.97%. CC1CN(C)CCN1CC(=O)NC(N)=O (configuration not stated) read 9.489%. CC(=O)N1CCC(N)c2ccccc21 (configuration not stated) read -1.551%. CSCCC(O)C(=O)NCCn1c(C)cc(C)nc1=O (configuration not stated) gave -277.9%. Result for CCC(NC(=O)CCc1cnccn1)c1ccncc1 (configuration not stated) was 5.717%.

With CC[C@H](C)[C@H](N)C(=O)NCCCc1ccccn1 the screen gave 2.837%. CS(=O)(=O)N1CCN(c2ccc(C(N)=O)cc2)CC1 gave -0.7826%. With CC(C)CS(=O)(=O)CCNC(=O)c1ccc(=O)n(C)c1 the screen gave 5.584%. Cn1nccc1C(=O)Nc1n[nH]c(C2CCC2)n1 gave -2.9%. Result for Cn1cncc1CCNC(=O)c1cc(Cl)cn1C was 27.34%.

CCOCC(=O)NC(C)c1c(F)cccc1OC (configuration not stated) read 76.1%. With CCC(N)C(=O)N1CCN(c2ccncc2Cl)CC1 (configuration not stated) the screen gave 2.085%. For Cc1n[nH]c(SCc2nc(-c3ccccn3)no2)n1 the result was 15.59%. Result for CC1(C)CN(C(=O)c2cc(Br)c[nH]2)CCO1 was 69.49%. Cc1ccccc1CC(=O)N(C)C read 10.93%.

With CC(C)C(=O)NC1CCN(C(C)C)CC1 the screen gave 8.212%. NCC(CO)Cc1ccc(F)c(Br)c1 (configuration not stated) read 71.79%. For N[C@H]1CN(C(=O)CCCc2cn[nH]c2)C[C@@H]1C1CC1 the result was -7.742%. Cc1nc(=N)c(C)c(C)[nH]1 gave -9.71%. COc1cccc(CO)n1 gave 9.882%.

Result for Cc1cc(C(=O)N2CCSCC2c2cnn(C)c2)no1 (configuration not stated) was -1.727%. With Cc1cc(C)c(C(=O)N2CC(CO)C2)o1 the screen gave 3.299%. O=C(NCCC(=O)N1CCCC1)Nc1nncs1 gave 1.761%. For Cc1ccc(CN)c(OCC2CCCO2)c1 (configuration not stated) the result was -1.637%.

Repeated from the top, 5 entries:

{"structure": "Cc1ccc(C2CCCN2S(=O)(=O)N(C)CC(N)=O)o1", "stereo": "configuration not stated", "percent effect": 23.53}
{"structure": "COC(=O)NCC(=O)Nc1cc2c(cc1Br)OCCO2", "percent effect": 0.8328}
{"structure": "COCCNC(=O)CNC(=O)c1cc(C)cc(C)c1Br", "percent effect": 12.99}
{"structure": "CC(C)N(C)C(=O)Nc1cccnc1OCC(F)F", "percent effect": 22.23}
{"structure": "CC(N)c1c(F)cccc1F", "stereo": "configuration not stated", "percent effect": 7.306}

The values are deposited in ChEMBL (CHEMBL3988442, “University of Dundee, Small-Polar-MMV Screening Library” (2021)).